Experimental data taken from paper PMC6558801.
Results are given in words; binding and its absence hold for the method and conditions named. In cells and extracts the contact can be indirect. Binding can be weak; no strength is given. Sequences can lack the tags named with a protein.

Target: EGFR truncate with the intracellular tyrosine kinase domain
Experiment: co-IP; different truncates of EGFR co-expressed with PLEK2 in transfected cells (cell line and antibody not stated)

binding: binds
B1: Flag-tagged PLEK2 (pleckstrin-2), overexpressed in 293T cells (protein, UniProt Q9NYT0 1-353)
chain: MEDGVLKEGFLVKRGHIVHNWKARWFILRQNTLVYYKLEGGRRVTPPKGRILLDGCTITCPCLEYENRPLLIKLKTQTSTEYFLEACSREERDAWAFEITGAIHAGQPGKVQQLHSLRNSFKLPPHISLHRIVDKMHDSNTGIRSSPNMEQGSTYKKTFLGSSLVDWLISNSFTASRLEAVTLASMLMEENFLRPVGVRSMGAIRSGDLAEQFLDDSTALYTFAESYKKKISPKEEISLSTVELSGTVVKQGYLAKQGHKRKNWKVRRFVLRKDPAFLHYYDPSKEENRPVGGFSLRGSLVSALEDNGVPTGVKGNVQGNLFKVITKDDTHYYIQASSKAERAEWIEAIKKLT
